Experimental data reported in patent US20070197774A1.
No constants are given. Whether binding was seen depends on the method and setting. Some results given as binding are weak or reduced against the parent protein; the word gives no strength.

The chains behind the UniProt entries cited, without tags or fusion partners.
UniProt Q64326: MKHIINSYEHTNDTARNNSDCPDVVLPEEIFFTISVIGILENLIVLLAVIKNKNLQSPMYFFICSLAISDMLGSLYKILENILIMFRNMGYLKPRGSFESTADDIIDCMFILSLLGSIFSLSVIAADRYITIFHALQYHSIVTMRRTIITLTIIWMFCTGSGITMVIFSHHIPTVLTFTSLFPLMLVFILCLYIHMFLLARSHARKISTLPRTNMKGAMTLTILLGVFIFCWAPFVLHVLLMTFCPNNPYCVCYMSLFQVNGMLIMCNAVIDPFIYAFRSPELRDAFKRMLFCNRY

Target: MC-2R adrenocorticotropic hormone receptor (melanocortin 2 receptor) on explanted mouse adrenal membrane (mouse) (UniProt Q64326)
Assay: competitive displacement of 125I-mACTH(1-24) from mouse adrenal membrane fraction at 10, 100 and 1000 nM

binding	Binder
binds	SYSMEHFRWGKPVGKKRRPVKVYP [unmodified mACTH(1-24)]
binds	SYSMEHFRWGKPVGKRAAWVKVYP [(KKRRP15-19KRAAW) mACTH(1-24)]
